In paper doi:10.1101/2020.09.21.305680:
These are yes or no findings as the source states them, for the method shown. Some entries that bind do so weakly or less than the wild type.

Key:
[1] = target: T1, Cdc45 (S. cerevisiae) (UniProt Q08032); assay: two-hybrid
T1 sequence: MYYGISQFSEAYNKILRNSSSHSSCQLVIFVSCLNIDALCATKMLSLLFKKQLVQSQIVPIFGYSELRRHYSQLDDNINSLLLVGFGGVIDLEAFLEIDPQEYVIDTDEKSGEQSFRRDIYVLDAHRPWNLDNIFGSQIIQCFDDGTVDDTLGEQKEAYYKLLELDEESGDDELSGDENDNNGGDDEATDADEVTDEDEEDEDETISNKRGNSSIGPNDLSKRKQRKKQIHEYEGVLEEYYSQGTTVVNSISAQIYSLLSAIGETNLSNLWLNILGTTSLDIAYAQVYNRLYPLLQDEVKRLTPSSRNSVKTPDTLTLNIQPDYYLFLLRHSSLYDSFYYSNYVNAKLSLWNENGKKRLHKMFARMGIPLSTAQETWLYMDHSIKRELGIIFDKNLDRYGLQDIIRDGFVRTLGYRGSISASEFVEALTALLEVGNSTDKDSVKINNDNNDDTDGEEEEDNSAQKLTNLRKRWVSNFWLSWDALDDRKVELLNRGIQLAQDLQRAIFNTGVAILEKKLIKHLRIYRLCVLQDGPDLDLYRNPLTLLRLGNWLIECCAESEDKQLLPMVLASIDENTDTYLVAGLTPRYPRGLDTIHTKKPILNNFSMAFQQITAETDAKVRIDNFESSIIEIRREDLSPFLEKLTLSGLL

[2] = target: T2, Sld3 (S. cerevisiae) (UniProt P53135); assay: two-hybrid
T2 sequence: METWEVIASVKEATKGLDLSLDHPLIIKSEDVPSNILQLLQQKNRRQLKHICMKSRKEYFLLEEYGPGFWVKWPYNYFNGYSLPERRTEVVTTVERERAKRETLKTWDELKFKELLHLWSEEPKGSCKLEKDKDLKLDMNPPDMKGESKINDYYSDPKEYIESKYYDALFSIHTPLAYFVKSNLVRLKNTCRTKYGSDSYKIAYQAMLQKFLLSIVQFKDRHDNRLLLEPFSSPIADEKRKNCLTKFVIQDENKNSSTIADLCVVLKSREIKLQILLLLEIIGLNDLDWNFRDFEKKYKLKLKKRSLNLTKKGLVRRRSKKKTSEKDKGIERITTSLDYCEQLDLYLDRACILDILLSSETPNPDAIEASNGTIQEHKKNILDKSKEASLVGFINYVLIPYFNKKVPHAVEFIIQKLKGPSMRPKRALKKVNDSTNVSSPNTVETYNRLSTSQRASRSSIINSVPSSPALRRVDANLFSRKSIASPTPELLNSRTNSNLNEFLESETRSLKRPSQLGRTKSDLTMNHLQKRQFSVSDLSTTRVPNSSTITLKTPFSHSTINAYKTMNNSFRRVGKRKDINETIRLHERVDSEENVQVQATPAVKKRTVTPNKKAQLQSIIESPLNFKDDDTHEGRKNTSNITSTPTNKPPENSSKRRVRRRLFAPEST

binding [1]: no binding
binding [2]: binds
B1: Esa1 (protein, UniProt Q08649 1-445)
chain: MSHDGKEEPGIAKKINSVDDIIIKCQCWVQKNDEERLAEILSINTRKAPPKFYVHYVNYNKRLDEWITTDRINLDKEVLYPKLKATDEDNKKQKKKKATNTSETPQDSLQDGVDGFSRENTDVMDLDNLNVQGIKDENISHEDEIKKLRTSGSMTQNPHEVARVRNLNRIIMGKYEIEPWYFSPYPIELTDEDFIYIDDFTLQYFGSKKQYERYRKKCTLRHPPGNEIYRDDYVSFFEIDGRKQRTWCRNLCLLSKLFLDHKTLYYDVDPFLFYCMTRRDELGHHLVGYFSKEKESADGYNVACILTLPQYQRMGYGKLLIEFSYELSKKENKVGSPEKPLSDLGLLSYRAYWSDTLITLLVEHQKEITIDEISSMTSMTTTDILHTAKTLNILRYYKGQHIIFLNEDILDRYNRLKAKKRRTIDPNRLIWKPPVFTASQLRFAW
